{
  "source": "paper PMC12024694",
  "about": "“RNA Binding to CCRRM of PABPN1 Induces Conformation Change”",
  "binders": {"B1": {"name": "CCRRM fragment of PABPN1 (Poly(A) Binding Protein Nuclear 1), amino acids 114-254 (domain or fragment, UniProt Q86U42 114-254)", "chain": "IEDPELEAIKARVREMEEEAEKLKELQNEVEKQMNMSPPPGNAGPVIMSIEEKMEADARSIYVGNVDYGATAEELEAHFHGCGSVNRVTILCDKFSGHPKGFAYIEFSDKESVRTSLALDESLFRGRQIKVIPKRTNRPGI"}},
  "biological_target": "CCRRM fragment of PABPN1 (Poly(A) Binding Protein Nuclear 1), amino acids 114-254 (UniProt Q86U42)",
  "assay": "SAXS; SEC-SAXS of RNA-free CCRRM in Tris-HCl buffer, flow 0.5 mL/min, beamline BL19U2 of SSRF; both purified",
  "note": "No constants are given. Whether binding was seen depends on the method and setting.",
  "data": [
    {"binder": "B1", "values": [
      {"measurement": "binding", "result": "no binding"}
    ]}
  ]
}
